This is one part of the list.

By UniProt entry, the sequences of proteins in these tests, tags left out. Where a name states a change or a piece, a line headed by the entry shows the natural chain unless it says otherwise.
UniProt P50570: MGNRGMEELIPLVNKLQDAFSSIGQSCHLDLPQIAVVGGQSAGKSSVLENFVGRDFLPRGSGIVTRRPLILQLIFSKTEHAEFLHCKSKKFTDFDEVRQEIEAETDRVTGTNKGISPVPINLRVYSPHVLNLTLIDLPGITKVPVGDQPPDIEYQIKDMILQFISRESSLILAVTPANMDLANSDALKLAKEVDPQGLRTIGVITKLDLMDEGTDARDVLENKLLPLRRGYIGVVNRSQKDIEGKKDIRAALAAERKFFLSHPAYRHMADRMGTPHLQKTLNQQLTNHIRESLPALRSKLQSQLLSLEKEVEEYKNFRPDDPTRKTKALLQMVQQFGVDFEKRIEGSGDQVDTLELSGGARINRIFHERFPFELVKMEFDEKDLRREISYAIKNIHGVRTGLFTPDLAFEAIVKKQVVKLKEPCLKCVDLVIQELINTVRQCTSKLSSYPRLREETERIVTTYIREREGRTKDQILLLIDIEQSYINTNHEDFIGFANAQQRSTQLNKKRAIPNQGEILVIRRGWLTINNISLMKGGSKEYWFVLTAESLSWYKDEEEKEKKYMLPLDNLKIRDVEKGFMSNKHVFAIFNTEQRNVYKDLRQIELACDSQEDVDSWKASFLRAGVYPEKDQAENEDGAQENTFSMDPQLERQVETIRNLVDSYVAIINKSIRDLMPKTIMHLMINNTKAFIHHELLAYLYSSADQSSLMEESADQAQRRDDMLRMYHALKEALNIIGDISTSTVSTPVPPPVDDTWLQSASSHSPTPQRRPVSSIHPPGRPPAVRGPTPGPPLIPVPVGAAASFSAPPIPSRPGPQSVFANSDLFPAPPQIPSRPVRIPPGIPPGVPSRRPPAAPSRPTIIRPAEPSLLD
UniProt Q05193: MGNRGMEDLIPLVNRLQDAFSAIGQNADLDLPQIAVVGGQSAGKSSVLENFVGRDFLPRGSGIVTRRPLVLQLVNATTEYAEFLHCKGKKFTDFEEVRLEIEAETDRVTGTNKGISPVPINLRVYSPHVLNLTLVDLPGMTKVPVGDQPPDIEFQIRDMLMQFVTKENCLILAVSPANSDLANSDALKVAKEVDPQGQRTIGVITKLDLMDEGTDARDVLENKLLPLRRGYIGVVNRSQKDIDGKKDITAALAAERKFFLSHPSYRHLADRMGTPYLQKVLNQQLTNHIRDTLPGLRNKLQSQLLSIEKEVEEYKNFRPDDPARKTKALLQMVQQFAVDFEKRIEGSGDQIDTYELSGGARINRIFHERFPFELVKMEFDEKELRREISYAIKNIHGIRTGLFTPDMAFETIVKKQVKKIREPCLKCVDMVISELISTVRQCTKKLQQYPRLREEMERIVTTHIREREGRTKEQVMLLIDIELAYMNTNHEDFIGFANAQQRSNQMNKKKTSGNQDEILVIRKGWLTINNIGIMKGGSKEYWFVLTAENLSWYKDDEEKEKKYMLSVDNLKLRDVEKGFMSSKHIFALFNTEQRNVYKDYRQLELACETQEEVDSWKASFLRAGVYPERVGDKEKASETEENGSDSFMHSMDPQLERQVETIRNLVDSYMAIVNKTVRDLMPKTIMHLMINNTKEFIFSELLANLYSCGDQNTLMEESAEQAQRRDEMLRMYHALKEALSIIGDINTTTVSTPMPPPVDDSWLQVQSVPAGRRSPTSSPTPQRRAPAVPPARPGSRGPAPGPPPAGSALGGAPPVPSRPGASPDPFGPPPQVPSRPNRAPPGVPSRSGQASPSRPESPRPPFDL
UniProt Q96HY7: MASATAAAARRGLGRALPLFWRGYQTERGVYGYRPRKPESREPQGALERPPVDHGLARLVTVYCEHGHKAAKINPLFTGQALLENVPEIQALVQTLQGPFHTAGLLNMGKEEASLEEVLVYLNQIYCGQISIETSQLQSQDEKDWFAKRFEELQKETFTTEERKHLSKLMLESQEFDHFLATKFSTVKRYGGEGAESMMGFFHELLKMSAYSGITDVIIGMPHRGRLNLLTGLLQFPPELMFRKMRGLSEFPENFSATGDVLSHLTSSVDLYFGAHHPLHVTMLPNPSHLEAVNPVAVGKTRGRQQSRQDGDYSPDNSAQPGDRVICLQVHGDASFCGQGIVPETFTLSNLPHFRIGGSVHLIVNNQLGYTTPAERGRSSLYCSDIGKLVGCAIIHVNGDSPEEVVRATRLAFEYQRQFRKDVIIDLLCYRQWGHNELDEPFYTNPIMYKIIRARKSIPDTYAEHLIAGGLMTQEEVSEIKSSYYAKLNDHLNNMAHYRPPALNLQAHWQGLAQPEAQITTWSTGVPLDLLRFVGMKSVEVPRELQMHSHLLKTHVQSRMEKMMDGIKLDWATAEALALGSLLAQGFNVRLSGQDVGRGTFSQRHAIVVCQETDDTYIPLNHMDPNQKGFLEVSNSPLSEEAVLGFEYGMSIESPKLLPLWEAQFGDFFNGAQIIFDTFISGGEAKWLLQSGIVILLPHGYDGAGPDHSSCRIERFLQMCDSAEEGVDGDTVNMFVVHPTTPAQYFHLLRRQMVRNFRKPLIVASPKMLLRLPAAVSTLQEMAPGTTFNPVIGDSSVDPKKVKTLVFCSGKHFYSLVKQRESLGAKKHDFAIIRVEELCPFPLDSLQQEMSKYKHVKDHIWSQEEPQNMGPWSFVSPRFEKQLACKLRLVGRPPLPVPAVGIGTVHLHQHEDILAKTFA
UniProt Q9NYP3: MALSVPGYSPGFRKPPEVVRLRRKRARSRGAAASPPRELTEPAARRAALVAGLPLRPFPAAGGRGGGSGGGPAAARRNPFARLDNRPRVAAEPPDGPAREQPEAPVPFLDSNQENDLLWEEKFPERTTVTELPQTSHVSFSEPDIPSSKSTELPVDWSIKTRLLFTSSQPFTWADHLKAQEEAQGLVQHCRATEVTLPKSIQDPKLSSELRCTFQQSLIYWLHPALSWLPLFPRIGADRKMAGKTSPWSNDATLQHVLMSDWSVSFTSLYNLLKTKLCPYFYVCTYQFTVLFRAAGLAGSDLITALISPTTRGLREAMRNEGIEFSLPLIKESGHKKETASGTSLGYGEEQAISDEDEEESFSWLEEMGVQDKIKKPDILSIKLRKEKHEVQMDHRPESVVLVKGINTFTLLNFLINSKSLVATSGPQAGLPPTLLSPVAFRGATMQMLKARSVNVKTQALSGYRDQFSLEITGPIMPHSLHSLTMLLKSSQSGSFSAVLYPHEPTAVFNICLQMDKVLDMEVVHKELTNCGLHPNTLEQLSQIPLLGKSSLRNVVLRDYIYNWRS
UniProt Q9BY27: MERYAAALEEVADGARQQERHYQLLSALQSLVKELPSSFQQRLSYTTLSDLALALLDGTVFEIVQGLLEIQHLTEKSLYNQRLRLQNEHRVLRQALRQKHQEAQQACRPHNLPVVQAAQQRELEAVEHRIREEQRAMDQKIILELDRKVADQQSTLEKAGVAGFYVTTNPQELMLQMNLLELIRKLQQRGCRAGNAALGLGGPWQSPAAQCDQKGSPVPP
UniProt Q7Z3D6: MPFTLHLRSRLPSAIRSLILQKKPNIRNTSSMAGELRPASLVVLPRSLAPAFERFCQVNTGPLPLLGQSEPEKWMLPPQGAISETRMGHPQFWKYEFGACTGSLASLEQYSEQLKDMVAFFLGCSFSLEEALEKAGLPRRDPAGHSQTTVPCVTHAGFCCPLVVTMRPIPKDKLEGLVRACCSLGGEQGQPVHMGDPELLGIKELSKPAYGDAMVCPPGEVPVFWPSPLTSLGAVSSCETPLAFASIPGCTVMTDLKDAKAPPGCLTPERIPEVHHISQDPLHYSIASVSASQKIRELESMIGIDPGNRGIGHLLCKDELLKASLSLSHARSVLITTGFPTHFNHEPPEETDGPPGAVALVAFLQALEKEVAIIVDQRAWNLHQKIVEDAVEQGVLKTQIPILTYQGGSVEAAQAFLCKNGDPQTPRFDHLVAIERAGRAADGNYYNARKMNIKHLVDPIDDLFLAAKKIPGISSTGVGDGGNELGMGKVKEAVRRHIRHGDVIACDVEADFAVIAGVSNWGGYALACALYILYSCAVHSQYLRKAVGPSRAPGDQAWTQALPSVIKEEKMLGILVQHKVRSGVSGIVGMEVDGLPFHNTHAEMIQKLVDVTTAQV
UniProt P26358: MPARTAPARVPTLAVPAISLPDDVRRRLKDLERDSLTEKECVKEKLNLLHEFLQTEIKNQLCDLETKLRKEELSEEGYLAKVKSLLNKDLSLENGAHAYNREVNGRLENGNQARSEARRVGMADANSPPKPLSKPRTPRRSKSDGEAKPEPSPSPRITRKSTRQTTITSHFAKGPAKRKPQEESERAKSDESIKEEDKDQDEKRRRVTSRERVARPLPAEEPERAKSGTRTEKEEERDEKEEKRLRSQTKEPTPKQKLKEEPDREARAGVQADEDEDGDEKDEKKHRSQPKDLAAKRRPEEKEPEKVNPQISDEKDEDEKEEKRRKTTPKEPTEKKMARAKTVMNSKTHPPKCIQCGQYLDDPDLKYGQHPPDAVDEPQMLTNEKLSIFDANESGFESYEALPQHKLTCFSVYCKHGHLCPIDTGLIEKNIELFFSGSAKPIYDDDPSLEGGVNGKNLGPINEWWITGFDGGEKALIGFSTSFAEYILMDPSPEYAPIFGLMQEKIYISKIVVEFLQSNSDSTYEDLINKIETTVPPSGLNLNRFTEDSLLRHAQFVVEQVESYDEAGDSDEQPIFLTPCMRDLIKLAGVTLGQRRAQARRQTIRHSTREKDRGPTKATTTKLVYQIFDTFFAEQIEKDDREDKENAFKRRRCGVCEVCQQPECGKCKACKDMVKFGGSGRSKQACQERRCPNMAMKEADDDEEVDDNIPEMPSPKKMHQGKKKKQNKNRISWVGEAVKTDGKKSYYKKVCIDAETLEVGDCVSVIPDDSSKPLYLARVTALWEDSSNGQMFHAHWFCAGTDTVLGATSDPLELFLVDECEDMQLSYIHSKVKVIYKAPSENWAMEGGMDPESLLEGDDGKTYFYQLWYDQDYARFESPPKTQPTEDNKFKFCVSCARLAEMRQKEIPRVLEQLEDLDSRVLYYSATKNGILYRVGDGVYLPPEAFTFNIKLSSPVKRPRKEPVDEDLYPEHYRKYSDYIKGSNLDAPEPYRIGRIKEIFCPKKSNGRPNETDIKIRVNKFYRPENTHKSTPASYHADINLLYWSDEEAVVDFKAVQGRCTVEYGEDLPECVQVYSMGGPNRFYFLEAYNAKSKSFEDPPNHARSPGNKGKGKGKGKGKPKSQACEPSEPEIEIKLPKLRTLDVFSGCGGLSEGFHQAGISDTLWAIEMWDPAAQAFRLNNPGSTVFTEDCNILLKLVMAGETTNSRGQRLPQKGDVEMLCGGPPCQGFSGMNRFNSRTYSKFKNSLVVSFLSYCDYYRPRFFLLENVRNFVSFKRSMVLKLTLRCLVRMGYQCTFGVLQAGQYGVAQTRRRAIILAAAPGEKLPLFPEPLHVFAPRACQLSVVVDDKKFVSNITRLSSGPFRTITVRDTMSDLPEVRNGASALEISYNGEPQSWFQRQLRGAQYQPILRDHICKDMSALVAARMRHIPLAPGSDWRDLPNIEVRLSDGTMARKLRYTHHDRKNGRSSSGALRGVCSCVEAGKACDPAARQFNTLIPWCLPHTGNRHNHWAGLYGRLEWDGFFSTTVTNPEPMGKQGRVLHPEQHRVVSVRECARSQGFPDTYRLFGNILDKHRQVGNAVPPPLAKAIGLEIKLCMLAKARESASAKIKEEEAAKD
UniProt Q9H3H5: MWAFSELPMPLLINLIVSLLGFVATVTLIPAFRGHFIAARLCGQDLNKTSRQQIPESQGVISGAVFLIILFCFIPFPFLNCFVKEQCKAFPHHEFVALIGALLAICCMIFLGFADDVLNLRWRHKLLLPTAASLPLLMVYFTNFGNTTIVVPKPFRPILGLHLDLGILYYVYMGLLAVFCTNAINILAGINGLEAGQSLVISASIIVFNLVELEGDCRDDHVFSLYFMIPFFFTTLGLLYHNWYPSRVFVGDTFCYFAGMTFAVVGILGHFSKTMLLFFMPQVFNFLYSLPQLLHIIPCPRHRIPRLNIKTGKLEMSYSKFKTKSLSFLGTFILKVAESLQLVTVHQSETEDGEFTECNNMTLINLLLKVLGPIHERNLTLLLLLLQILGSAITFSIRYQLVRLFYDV
UniProt Q6UX07: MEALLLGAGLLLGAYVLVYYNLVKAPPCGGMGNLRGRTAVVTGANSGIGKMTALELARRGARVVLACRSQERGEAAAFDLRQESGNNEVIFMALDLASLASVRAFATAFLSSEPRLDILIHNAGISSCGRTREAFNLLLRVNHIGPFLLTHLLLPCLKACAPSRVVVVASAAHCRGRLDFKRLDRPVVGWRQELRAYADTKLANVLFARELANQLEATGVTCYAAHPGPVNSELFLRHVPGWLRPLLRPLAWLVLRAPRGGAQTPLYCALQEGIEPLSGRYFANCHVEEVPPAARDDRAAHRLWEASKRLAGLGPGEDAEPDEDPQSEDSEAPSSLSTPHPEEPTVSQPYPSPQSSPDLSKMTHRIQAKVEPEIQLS

Compound in the assay: CN1CCN(c2nc(C3=C(c4c[nH]c5ccccc45)C(=O)NC3=O)c3ccccc3n2)CC1 [sotrastaurin]
Put plainly: log2 fold change, soluble protein after heating vs DMSO (PISA); higher = thermal stabilisation; K562 lysate, 10 uM; active = over 0.2 and 3.5 SD of the protein, either way, in both replicates (recomputed). Summed up: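 A 30 min treatment with 10 μM compound was applied to crude K562 extract at 1 mg/mL protein in PBS pH 7.4 with 1 mM MgCl2. Heating for 3 min spanned 48°C-58°C, after which aliquots were pooled, adjusted to 0.5% NP-40 at 4°C and spun at 21,000xg for 90 min. TMTpro 16plex LC-MS/MS of the supernatant, with channel sums equalised, gave values recorded as log-two fold change in thermal stability against solvent controls, from duplicates.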
In the case of DNM2 isoform 4 (UniProt P50570), the log2 fold change was inactive: -0.031.

In the case of DNAJB9 (UniProt Q9UBS3), the log2 fold change is inactive: -0.015.

Turning to DNAJC19, A0A2R8Y839, the log2 fold change is inactive: 0.008.

With DNM1 (UniProt Q05193), the log2 fold change was inactive: 0.156.

With DHTKD1 (UniProt Q96HY7), the log2 fold change is inactive: 0.065.

As to DONSON (UniProt Q9NYP3), the log2 fold change is inactive: 0.016.

Take DGCR6L (UniProt Q9BY27): the log2 fold change was inactive: 0.011.

With DGLUCY isoform 2 (UniProt Q7Z3D6), the log2 fold change was inactive: 0.075.

Consider DNAJC16 (UniProt Q9Y2G8), for which the log2 fold change was inactive: 0.004.

Turning to DMD isoform 14 (UniProt P11532), the log2 fold change was inactive: 0.065.

For the target DOP1A (UniProt Q5JWR5), the log2 fold change was inactive: -0.028.

DNMT1 (UniProt P26358): the log2 fold change is inactive: 0.13.

For DPAGT1 (UniProt Q9H3H5), the log2 fold change was inactive: -0.007.

With DNPEP (UniProt B9ZVU2), the log2 fold change is inactive: -0.064.

On to DLC1 (UniProt Q96QB1), for which the log2 fold change is inactive: -0.019.

As for DHRS13 (UniProt Q6UX07), the log2 fold change was inactive: 0.095.

For DNAJB14 (UniProt H7C494), the log2 fold change is inactive: -0.045.

The values above are taken from the supplement of paper PMC10849652.
